Article doi:10.1101/2023.08.10.549595
Results are given in words; binding and its absence hold for the method and conditions named. Binding seen in cells or lysates may run through a third protein. Binding can be weak; no strength is given.

Molecular target: FLAG-TEV-Rad9 (Xenopus laevis)
Experiment: co-purification

binding: binds
B1: Hus1 (protein, UniProt Q8JHD8 1-282)
chain: MRFRSKIVDVSCLNHFTRVINTITKLTKTCTLRLTSSNLYFILTDKVANGGVSMWCELSQGNFFDEYQMEGVCVEQNEIFLELIPENLSRALKTAQNSKSVKIKLTNKHCPCLTVALELPSLSSSSRIVTHDIPVSVIPRRLWNDFKEPSVPEFDVSIYLPALKTMKNVVERMKNLSNFIVIEANRNGEMNLKIETDLVSVSTHFKDLGNPPWVSDDASQNSTQEKDTMAEARIDIRKLLQFLAGQQVNPTKAICNIVHKRMVHFILLHEDVSLQYFIPALA
